From publication PMC4468860
These are yes or no findings as the source states them, for the method shown. In cells and extracts the contact can be indirect. Some binding calls cover weakened binding; strength is not graded here. For part of these data: Tags and fused reporters may be left off the sequences shown.

Chains of the proteins cited; added tags and fusions are not shown. Residues count along the entry.
UniProt Q3UH93, residues 49-1925: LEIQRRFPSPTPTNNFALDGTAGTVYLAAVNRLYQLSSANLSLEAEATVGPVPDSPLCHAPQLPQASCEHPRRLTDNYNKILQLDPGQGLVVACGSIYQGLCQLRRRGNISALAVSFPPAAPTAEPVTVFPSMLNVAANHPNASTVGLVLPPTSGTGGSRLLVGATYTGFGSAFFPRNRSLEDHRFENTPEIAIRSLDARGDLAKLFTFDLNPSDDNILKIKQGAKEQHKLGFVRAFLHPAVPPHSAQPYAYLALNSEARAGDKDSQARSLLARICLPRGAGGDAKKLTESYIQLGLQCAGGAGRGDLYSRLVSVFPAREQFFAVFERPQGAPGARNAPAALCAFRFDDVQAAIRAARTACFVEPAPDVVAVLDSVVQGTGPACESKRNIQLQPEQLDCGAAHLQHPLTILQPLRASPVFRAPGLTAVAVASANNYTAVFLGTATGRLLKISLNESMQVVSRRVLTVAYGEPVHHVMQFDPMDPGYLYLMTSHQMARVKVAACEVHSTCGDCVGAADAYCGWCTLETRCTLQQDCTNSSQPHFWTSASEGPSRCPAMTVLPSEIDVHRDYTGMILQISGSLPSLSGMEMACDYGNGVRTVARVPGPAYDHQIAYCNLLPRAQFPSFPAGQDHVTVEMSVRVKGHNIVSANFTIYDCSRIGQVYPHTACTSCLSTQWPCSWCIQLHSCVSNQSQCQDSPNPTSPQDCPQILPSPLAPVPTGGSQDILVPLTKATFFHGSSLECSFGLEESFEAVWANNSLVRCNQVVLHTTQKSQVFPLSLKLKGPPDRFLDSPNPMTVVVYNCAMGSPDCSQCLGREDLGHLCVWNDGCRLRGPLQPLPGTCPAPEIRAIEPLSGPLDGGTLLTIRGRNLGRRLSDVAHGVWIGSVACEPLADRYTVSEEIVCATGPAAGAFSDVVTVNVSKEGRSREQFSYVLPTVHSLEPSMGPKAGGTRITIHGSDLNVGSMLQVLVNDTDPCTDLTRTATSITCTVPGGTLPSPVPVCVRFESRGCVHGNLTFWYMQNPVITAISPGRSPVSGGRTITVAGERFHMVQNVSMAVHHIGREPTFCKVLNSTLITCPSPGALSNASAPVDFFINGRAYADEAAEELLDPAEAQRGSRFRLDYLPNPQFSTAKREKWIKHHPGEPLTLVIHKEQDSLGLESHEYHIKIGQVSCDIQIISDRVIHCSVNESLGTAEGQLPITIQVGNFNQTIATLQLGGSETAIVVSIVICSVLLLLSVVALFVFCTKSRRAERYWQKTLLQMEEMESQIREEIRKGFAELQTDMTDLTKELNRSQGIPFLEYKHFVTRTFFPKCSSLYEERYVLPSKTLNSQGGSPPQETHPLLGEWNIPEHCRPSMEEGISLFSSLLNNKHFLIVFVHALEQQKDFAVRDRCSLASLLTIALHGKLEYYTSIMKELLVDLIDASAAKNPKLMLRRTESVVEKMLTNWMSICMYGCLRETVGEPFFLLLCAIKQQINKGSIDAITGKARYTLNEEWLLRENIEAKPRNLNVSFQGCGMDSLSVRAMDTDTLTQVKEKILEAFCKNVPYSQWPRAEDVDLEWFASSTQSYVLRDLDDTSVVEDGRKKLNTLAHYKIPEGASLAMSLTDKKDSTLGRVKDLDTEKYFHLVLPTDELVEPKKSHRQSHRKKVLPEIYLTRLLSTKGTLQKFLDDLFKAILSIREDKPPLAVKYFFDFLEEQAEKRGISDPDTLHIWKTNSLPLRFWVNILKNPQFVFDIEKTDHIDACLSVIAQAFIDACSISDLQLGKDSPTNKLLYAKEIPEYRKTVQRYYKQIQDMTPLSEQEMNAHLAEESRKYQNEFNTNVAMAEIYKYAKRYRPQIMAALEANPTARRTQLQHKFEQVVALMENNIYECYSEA
UniProt P35918, residues 20-1345: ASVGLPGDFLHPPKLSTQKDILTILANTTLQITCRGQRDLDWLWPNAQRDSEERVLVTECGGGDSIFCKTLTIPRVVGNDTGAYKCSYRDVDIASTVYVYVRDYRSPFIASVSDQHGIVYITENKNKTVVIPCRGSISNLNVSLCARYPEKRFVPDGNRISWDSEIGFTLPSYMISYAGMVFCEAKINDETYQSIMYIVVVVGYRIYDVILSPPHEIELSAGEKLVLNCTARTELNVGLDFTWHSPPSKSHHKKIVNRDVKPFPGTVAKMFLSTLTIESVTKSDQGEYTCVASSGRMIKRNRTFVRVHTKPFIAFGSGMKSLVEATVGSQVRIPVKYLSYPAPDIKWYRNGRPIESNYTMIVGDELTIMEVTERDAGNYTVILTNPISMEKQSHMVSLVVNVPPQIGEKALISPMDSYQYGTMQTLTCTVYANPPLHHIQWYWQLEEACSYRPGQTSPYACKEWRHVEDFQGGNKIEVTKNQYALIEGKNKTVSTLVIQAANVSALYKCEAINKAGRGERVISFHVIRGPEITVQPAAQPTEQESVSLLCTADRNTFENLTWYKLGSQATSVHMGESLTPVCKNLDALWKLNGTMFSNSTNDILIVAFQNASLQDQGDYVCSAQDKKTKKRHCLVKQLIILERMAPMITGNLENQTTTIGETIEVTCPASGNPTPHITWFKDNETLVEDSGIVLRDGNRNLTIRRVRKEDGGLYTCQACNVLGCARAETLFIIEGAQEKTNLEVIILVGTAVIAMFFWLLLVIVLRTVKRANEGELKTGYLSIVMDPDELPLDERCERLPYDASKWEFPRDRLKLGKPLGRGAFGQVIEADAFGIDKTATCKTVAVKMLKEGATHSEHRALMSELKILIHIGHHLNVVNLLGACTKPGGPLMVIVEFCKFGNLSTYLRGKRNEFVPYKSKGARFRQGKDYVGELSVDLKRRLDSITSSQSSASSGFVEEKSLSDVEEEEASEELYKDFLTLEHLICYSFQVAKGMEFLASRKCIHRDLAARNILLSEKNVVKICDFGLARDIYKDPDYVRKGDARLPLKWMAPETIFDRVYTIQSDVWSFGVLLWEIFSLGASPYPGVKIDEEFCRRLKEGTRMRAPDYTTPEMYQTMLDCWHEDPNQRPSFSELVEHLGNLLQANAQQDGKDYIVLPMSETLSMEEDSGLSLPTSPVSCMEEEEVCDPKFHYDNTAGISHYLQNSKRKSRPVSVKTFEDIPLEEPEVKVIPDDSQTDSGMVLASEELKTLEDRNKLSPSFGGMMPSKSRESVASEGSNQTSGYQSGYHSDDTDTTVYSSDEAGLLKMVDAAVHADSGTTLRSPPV
UniProt Q9Z0R4: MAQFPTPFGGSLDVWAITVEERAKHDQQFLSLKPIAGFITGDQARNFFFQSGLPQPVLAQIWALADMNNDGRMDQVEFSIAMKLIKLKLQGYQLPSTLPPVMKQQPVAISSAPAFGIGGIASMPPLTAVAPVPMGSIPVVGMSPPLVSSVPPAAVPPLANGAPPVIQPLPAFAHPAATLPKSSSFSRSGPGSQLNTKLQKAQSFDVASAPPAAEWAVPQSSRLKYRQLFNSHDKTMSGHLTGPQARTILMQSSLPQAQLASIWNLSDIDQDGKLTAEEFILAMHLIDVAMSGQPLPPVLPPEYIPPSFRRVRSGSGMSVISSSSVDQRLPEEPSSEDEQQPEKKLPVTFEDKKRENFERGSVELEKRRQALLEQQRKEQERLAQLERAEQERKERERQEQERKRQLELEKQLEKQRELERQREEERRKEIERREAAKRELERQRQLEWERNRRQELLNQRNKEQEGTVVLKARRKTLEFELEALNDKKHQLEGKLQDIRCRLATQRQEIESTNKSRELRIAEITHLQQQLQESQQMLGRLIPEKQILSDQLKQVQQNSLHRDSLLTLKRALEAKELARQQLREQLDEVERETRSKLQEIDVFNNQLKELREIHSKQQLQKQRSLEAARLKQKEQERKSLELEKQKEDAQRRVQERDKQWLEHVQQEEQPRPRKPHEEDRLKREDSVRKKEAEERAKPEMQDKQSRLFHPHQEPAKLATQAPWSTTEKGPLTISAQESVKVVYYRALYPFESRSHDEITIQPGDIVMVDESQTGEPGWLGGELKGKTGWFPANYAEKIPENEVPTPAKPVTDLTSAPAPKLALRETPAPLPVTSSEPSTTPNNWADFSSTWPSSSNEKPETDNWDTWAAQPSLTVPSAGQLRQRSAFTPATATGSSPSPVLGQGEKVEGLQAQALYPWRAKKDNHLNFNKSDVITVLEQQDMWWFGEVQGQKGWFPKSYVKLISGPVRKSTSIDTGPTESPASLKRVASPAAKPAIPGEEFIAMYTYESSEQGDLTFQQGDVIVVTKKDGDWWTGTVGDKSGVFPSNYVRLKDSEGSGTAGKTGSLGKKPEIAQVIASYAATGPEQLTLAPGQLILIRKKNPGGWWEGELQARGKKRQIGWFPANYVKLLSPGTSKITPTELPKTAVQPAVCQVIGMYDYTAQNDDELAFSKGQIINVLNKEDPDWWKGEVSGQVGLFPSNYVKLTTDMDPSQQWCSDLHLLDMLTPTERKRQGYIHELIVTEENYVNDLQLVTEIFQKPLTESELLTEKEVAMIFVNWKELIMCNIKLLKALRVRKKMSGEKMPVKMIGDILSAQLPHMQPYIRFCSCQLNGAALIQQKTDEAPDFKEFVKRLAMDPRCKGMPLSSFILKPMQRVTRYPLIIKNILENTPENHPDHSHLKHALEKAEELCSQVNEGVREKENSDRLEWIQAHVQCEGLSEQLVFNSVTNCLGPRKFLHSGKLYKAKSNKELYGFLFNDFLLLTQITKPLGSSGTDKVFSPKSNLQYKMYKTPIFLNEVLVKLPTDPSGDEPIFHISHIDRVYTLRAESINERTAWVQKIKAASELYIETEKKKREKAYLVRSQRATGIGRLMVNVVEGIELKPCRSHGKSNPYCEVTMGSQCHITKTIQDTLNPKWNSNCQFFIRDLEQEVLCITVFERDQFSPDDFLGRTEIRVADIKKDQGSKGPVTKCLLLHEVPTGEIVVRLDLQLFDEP

Experiments:
[1] = target: Neuropilin1 (UniProt P97333); assay: co-IP; HEK293T17 cells expressing PlxD1, Nrp1, VEGFR2 and MAP6-E-GFP together; immunoprecipitation with goat anti-PlexinD1 or goat anti-Neuropilin, Dynabeads Protein G, washes up to 500 mM NaCl; western blot
[2] = target: Neuropilin1 (UniProt P97333); assay: co-IP; HEK293T17 cells expressing PlxD1, Nrp1 or VEGFR2 individually in combination with MAP6-E-GFP; immunoprecipitation of the receptor; western blot
[3] = target: PlexinD1 (UniProt Q3UH93); assay: as above
[4] = target: vascular endothelial growth factor receptor 2 (UniProt P35918); assay: as above
[5] = target: PlexinD1 (UniProt Q3UH93); assay: co-IP; HEK293T17 cells expressing PlxD1, Nrp1, VEGFR2 and MAP6-E-GFP together; immunoprecipitation with goat anti-PlexinD1 or goat anti-Neuropilin, Dynabeads Protein G, washes up to 500 mM NaCl; western blot
[6] = target: T1, GST-LNt (rat) (UniProt Q63560); assay: pull-down; GST-LNt on glutathione-sepharose beads incubated with postnatal brain lysate; blots probed with anti-p85 or anti-intersectin; only the target purified
T1 sequence: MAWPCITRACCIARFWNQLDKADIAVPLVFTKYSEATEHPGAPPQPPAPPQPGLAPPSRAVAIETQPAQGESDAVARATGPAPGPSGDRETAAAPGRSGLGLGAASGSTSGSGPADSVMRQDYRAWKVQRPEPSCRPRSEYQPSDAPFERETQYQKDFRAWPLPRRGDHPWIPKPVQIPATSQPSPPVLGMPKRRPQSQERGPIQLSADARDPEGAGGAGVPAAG

Substance	binding [1]	binding [5]	further results
PlexinD1 (from UniProt Q3UH93 49-1925) (receptor)	binds		
Neuropilin1 (from UniProt P97333 22-923) (receptor)		binds	
intersectin1 isoforms (endogenous) (from UniProt Q9Z0R4 1-1714)			binding [6]: binds

Further lines, with some results ahead:

binding [1]	binding [5]	Substance	further results
binds	binds	MAP6-E-GFP (from UniProt Q63560 1-614)	binding [2]: binds; binding [3]: binds; binding [4]: binds
	binds	vascular endothelial growth factor receptor 2 (from UniProt P35918 20-1345)	
